Test results as given in patent US9216981B2, “Purinylpyridinylamino-2,4-difluorophenyl sulfonamide derivative, pharmaceutically acceptable salt thereof, preparation method thereof, and pharmaceutical composition with inhibitory activity against Raf kinase, containing same as active ingredient” (Medpacto, Inc., priority 2010, dated 2015).

By UniProt entry, the sequences of proteins in these tests, tags left out.
UniProt P15056, whole entry: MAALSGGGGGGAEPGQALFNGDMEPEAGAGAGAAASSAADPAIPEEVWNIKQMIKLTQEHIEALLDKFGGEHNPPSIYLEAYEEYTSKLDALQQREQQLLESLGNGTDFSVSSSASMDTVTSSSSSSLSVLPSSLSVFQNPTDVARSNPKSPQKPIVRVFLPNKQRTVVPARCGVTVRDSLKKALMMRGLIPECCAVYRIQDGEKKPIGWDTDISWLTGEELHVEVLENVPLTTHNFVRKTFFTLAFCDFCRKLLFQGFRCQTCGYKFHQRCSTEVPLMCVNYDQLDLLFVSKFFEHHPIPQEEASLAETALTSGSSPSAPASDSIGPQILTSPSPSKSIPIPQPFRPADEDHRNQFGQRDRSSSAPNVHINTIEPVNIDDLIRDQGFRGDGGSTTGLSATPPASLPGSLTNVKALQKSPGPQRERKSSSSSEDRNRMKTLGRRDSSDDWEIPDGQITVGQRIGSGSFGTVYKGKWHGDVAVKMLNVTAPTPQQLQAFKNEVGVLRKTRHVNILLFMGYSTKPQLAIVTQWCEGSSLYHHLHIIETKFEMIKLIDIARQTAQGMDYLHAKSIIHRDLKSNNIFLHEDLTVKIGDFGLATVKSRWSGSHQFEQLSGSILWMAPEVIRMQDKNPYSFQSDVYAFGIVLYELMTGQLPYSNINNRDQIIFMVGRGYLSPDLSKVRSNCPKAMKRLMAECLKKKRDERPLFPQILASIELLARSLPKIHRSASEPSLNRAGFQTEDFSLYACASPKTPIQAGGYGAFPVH

How the values were obtained:
[1] = biological target: B-Raf (Homo sapiens (Human), UniProt P15056); assay: B-Raf kinase activity (B-Raf/MEK1/MAPK2 cascade, MBP phosphorylation, [γ-32P]ATP); settings: read-out: B-Raf Enzyme Activity, activated B-Raf, inactivated MEK1, inactivated MAPK2, 30° C., 30 minutes
[2] = system: A375P cell line; assay: B-Raf cell activity inhibition (A375P growth inhibition, MTT assay); type: cell-based; settings: read-out: Cell Activity (A375P), IC50, A375P human melanoma, V600E mutant of B-Raf, 72 hours

Compound: O=S(=O)(Nc1ccc(F)c(Nc2ncccc2-c2ncnc3[nH]cnc23)c1F)c1ccc(C2OCCO2)o1
- IC50 [1]: 220 nM
- IC50 [2]: 800 nM

The structures given here were assigned with low confidence; some may be wrong.
